Results reported in PubChem BioAssay (NCATS).
Inconclusive results, whose numbers are uncertain, are shown with a selection of clear calls. For part of these data: Where the call is inconclusive, the potency comes from a doubtful curve fit. Activity calls are given as the source filed them. Calls come from the whole dose curve; as a rule, active = well fitted curve in the direction sought with a large enough effect; inconclusive = small, poorly fitted or top-dose-only effect, or another doubt; inactive = no such curve, though single readings can be large; an effect the other way counts as inactive or inconclusive.

Tests used:
[1] = Quantitative High-Throughput drug screen in 47 multiple myeloma cell lines against the NCATS MIPE library collection: KMS20_JCRB cell viability assay (AID 1918973); conditions: CellTiter-Glo ATP, 48 h; viability (% of DMSO): at 45.8 µM (top of the series); note: nearly all actives have a fitted effect of over 45% in size; note: potency is the fitted concentration of half-maximal effect
Method in brief: (§1)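 CellTiter-Glo ATP luminescence gave viability after 48 h compound treatment at 37C of 500 multiple myeloma cells per well. Normalisation used DMSO-only wells as 100% and media-only wells as 0% viability; primary qHTS of approved and investigational drugs.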

[2] = Quantitative High-Throughput drug screen in 47 multiple myeloma cell lines against the NCATS MIPE library collection: KMS21BM_JCRB cell viability assay (AID 1918974); conditions: ATP luminescence, 48 h; viability: at 45.8 µM (top of the series) unless noted; note: potency is the fitted concentration of half-maximal effect
Method in brief: as §1

[3] = Quantitative High-Throughput drug screen in 47 multiple myeloma cell lines against the NCATS MIPE library collection: KMS26_JCRB cell viability assay (AID 1918975); conditions: KMS26 myeloma cells viability, CellTiter-Glo ATP, 48 h; viability (% of DMSO): at 45.8 µM (top of the series); note: nearly all actives have a fitted effect of over 45% in size; note: potency is the fitted concentration of half-maximal effect
Method in brief: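 Relative luminescence from CellTiter-Glo served as the viability signal, referenced to DMSO-treated (100%) and cell-free medium (0%) controls. Treatment lasted 48 hours at 37C with 500 cells per well.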

[4] = Quantitative High-Throughput drug screen in 47 multiple myeloma cell lines against the NCATS MIPE library collection: MMM1_PLB cell viability assay (AID 1918976); note: potency is the fitted concentration of half-maximal effect; nearly all actives have a fitted effect of over 35% in size
Method in brief: (§2)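 qHTS format: cells plated (500/well), pin-dosed with MIPE 4.0 compounds, kept 48 h at 37 °C. Readout was CellTiter-Glo luminescence, median RLU.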

[5] = Quantitative High-Throughput drug screen in 47 multiple myeloma cell lines against the NCATS MIPE library collection: MOLP8_DSMZ cell viability assay (AID 1918977); conditions: MOLP8 myeloma viability, CellTiter-Glo ATP luminescence, 48 h; viability (% of control): at 45.8 µM (top of the series); note: nearly all actives have a fitted effect of over 45% in size; note: potency is the fitted concentration of half-maximal effect
Method in brief: as §2

[6] = Quantitative High-Throughput drug screen in 47 multiple myeloma cell lines against the NCATS MIPE library collection: LP1_DSMZ cell viability assay (AID 1918982); conditions: LP1 myeloma viability, CellTiter-Glo ATP luminescence, 48 h; viability (% of control): at 45.8 µM (top of the series); note: nearly all actives have a fitted effect of over 35% in size; note: potency is the fitted concentration of half-maximal effect
Method in brief: as §2

[7] = Quantitative High-Throughput drug screen in 47 multiple myeloma cell lines against the NCATS MIPE library collection: KMS34_JCRB cell viability assay (AID 1918985); conditions: KMS34 myeloma viability, CellTiter-Glo ATP luminescence, 48 h; viability, percent of control: at 45.8 µM (top of the series); note: nearly all actives have a fitted effect of over 40% in size; note: potency is the fitted concentration of half-maximal effect
Method in brief: as §2

[8] = Quantitative High-Throughput drug screen in 47 multiple myeloma cell lines against the NCATS MIPE library collection: OCIMY7_PLB cell viability assay (AID 1918987); conditions: OCI-MY7 myeloma viability, CellTiter-Glo ATP, 48 h; viability (% of DMSO): at 45.8 µM (top of the series); note: potency is the fitted concentration of half-maximal effect; nearly all actives have a fitted effect of over 65% in size
Method in brief: as §2

[9] = Quantitative High-Throughput drug screen in 47 multiple myeloma cell lines against the NCATS MIPE library collection: OCIMY5_PLB cell viability assay (AID 1918988); conditions: OCI-MY5 myeloma viability, ATP luminescence, 48 h; viability, % of control: at 45.8 µM (top of the series); note: nearly all actives have a fitted effect of over 65% in size; note: potency is the fitted concentration of half-maximal effect;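 for viability, % of control: 100% = DMSO-treated wells and 0% = wells with media alone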
Method in brief: as §2

[10] = Quantitative High-Throughput drug screen in 47 multiple myeloma cell lines against the NCATS MIPE library collection: XG6_PLB cell viability assay (AID 1919865); conditions: XG6 myeloma viability, CellTiter-Glo ATP luminescence, 48 h; viability (% of control): at 45.8 µM (top of the series); note: nearly all actives have a fitted effect of over 40% in size; note: potency is the fitted concentration of half-maximal effect
Method in brief: as §2

[11] = Quantitative High-Throughput drug screen in 47 multiple myeloma cell lines against the NCATS MIPE library collection: NCIH929_DSMZ cell viability assay (AID 1918978); note: potency is the fitted concentration of half-maximal effect; nearly all actives have a fitted effect of over 35% in size
Method in brief: as §2

[12] = Quantitative High-Throughput drug screen in 47 multiple myeloma cell lines against the NCATS MIPE library collection: OCIMY1_PLB cell viability assay (AID 1918979); conditions: OCI-MY1 myeloma viability, CellTiter-Glo ATP, 48 h; viability: at 45.8 µM (top of the series) unless noted; note: nearly all actives have a fitted effect of over 35% in size
Method in brief: as §2

[13] = Quantitative High-Throughput drug screen in 47 multiple myeloma cell lines against the NCATS MIPE library collection: MM1S_ATCC cell viability assay (AID 1918980); note: potency is the fitted concentration of half-maximal effect; nearly all actives have a fitted effect of over 45% in size
Method in brief: as §2

[14] = Quantitative High-Throughput drug screen in 47 multiple myeloma cell lines against the NCATS MIPE library collection: MM1R_ATCC cell viability assay (AID 1918981)
Method in brief: as §2

[15] = Quantitative High-Throughput drug screen in 47 multiple myeloma cell lines against the NCATS MIPE library collection: KMS28PE_JCRB cell viability assay (AID 1918983)
Method in brief: as §2

[16] = Quantitative High-Throughput drug screen in 47 multiple myeloma cell lines against the NCATS MIPE library collection: L363_DSMZ cell viability assay (AID 1918984); conditions: L363 myeloma viability, CellTiter-Glo ATP luminescence, 48 h; viability (% of control): at 45.8 µM (top of the series); note: nearly all actives have a fitted effect of over 40% in size; note: potency is the fitted concentration of half-maximal effect
Method in brief: as §2

[17] = Quantitative High-Throughput drug screen in 47 multiple myeloma cell lines against the NCATS MIPE library collection: OPM1_PLB cell viability assay (AID 1918989); note: nearly all actives have a fitted effect of over 40% in size; note: potency is the fitted concentration of half-maximal effect
Method in brief: as §2

[18] = Quantitative High-Throughput drug screen in 47 multiple myeloma cell lines against the NCATS MIPE library collection: SKMM1_PLB cell viability assay (AID 1919863); conditions: SKMM1 myeloma viability, CellTiter-Glo ATP, 48 h; viability: active compounds read low; note: nearly all actives have a fitted effect of over 35% in size
Method in brief: as §2

[19] = Quantitative High-Throughput drug screen in 47 multiple myeloma cell lines against the NCATS MIPE library collection: U266_ATCC cell viability assay (AID 1919864); conditions: U266 myeloma viability, CellTiter-Glo ATP luminescence, 48 h; viability (% of DMSO control): at 45.8 µM (top of the series); note: nearly all actives have a fitted effect of over 35% in size; note: potency is the fitted concentration of half-maximal effect
Method in brief: as §2

[20] = Quantitative High-Throughput drug screen in 47 multiple myeloma cell lines against the NCATS MIPE library collection: XG1_PLB cell viability assay (AID 1919866); conditions: CellTiter-Glo ATP, 48 h; viability: at 45.8 µM (top of the series); note: nearly all actives have a fitted effect of over 35% in size; note: potency is the fitted concentration of half-maximal effect
Method in brief: as §2

SMILES	Potency [1]	Potency [2]	Potency [3]	Potency [4]	Potency [5]	Potency [6]	Potency [7]	Potency [8]	Potency [9]	Potency [10]	Potency [11]	Potency [12]	Potency [13]	Potency [14]	Potency [15]	Potency [16]	Potency [17]	viability [18]	Potency [19]	Potency [20]
CS(=O)(=O)Oc1ccc2c(NC(N)=O)c(C(=O)c3ccc(Cl)cc3Cl)oc2c1	inconclusive: 5.26 µM [cytotoxic, partial curve, poor fit]	active: 2.35 µM	inactive	inconclusive: 0.0132 µM [rising, full curve]	inconclusive: 0.0019 µM [rising, full curve, poor fit]	inactive	inactive	inconclusive: 11.8 µM [cytotoxic, partial curve, poor fit]	inactive	active: 16.6 µM										
CCOC(=O)c1ccc(C#Cc2ccc3c(c2)C(C)(C)CCS3)nc1	inactive	inconclusive: 0.105 µM [rising, full curve]	inactive		inconclusive: 13.2 µM [cytotoxic, partial curve, poor fit]	inconclusive: 37.2 µM [cytotoxic, single point]		inconclusive: 0.935 µM [rising, full curve, poor fit]	inconclusive: 33.2 µM [cytotoxic, single point]	inconclusive: 37.2 µM [cytotoxic, single point]	inconclusive: 23.5 µM [cytotoxic, single point]	inactive	inconclusive: 37.2 µM [cytotoxic, single point]	inconclusive: 18.7 µM [cytotoxic, partial curve, poor fit]	inconclusive: 23.5 µM [cytotoxic, single point]	inactive	inconclusive: 0.059 µM [rising, full curve]	inactive: 115%	inconclusive: 37.2 µM [cytotoxic, single point]	inconclusive: 37.2 µM [cytotoxic, single point]
COc1cccc(N(C)C(=S)Oc2ccc3c(c2)CCCC3)n1	inconclusive: 0.935 µM [cytotoxic, full curve, poor fit]	inconclusive: 9.35 µM [cytotoxic, partial curve, poor fit]	inactive	inconclusive: 33.2 µM [cytotoxic, single point]	inactive	inconclusive: 20.9 µM [cytotoxic, partial curve]	inactive	inconclusive: 14.8 µM [rising, partial curve, poor fit]	inconclusive: 37.2 µM [cytotoxic, single point]	inconclusive: 0.003 µM [rising, full curve, poor fit]						inconclusive: 14.8 µM [cytotoxic, partial curve, poor fit]	inactive	inactive: 139%	inactive	inconclusive: 18.7 µM [cytotoxic, partial curve, poor fit]
COc1cc(OC)c(NC(=O)Nc2cc(C)on2)cc1Cl	inconclusive: 0.001 µM	inconclusive: 6.62 µM [rising, full curve, poor fit]	inactive	inconclusive: 0.118 µM [rising, full curve, poor fit]	inconclusive: 0.148 µM [rising, full curve, poor fit]		inactive	inconclusive: 37.2 µM [rising, single point]		inactive			inconclusive: 0.0019 µM [rising, full curve]		inconclusive: 0.148 µM [rising, full curve, poor fit]	inactive		inactive: 145%	inconclusive: 0.0026 µM [rising, full curve, poor fit]	inactive
C=C[C@@H]1CN2CCC1C[C@H]2[C@H](O)c1ccnc2ccc(OC)cc12 (some centres not stated)	inconclusive: 0.0083 µM [rising, full curve, poor fit]	inconclusive: 0.0033 µM [cytotoxic, full curve, poor fit]	inconclusive: 16.6 µM [cytotoxic, partial curve, poor fit]	inconclusive: 0.0105 µM [rising, full curve, poor fit]	inactive	inactive	inconclusive: 0.132 µM [rising, full curve]	inconclusive: 33.2 µM [cytotoxic, single point]		inconclusive: 37.2 µM [cytotoxic, single point]			inconclusive: 0.0047 µM [rising, full curve, poor fit]			inactive	inactive	inactive: 93.1%	inconclusive: 0.0296 µM [rising, full curve, poor fit]	inconclusive: 3.72 µM [cytotoxic, full curve, poor fit]
